# Measurements as given in PubChem BioAssay (EPA / NIEHS).
# Where “and” joins values, the source holds several entries; their conditions need not be identical. Equal entries are not always repeated. Inconclusive means that the source gave no clear call. Such entries were picked first, then a sample of the others. A potency beside an inconclusive call is a rough fit, not a confirmed value. Calls of active or inactive are those of the source. How the source made its calls: active means hit-call score of the fitted dose curve at least 0.9, where 1 is the maximum; inconclusive means response in the unintended direction; inactive means score below 0.9.
# Test: ACEA_ER_AUC_viability: ACEA Biosciences xCELLigence Real-Time Cell Analysis on Estrogen Receptor Agonism for Viability (AID 2283782);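 further: continuous compound exposure with impedance area under curve over 80 h; hit means loss of impedance signal meaning reduced cell growth or viability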
# In short: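 T-47D; phenol red-free RPMI1640 + 10% CS-FBS; 8 conc., 1:4 serial, max 100 uM final, ≤0.5% DMSO; n = 2; continuous exposure; impedance monitored to 80 h post-dose; AUC vs DMSO.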
SMILES,AC50,outcome
O=C(c1ccccc1)C1CCCCC1,inconclusive: 9.92 µM and inconclusive: 10.6 µM and inconclusive: 19.9 µM,
Oc1ccc(-c2ccccc2)c(Cl)c1,active: 82.6 µM,
O=C(Nc1ccc(Cl)cc1)Nc1ccc(Cl)c(Cl)c1,active: 18.7 µM,
COCCOC[C@H](CC1(C(=O)NC2CCC(C(=O)O)CC2)CCCC1)C(=O)Oc1ccc2c(c1)CCC2 (stereo not given in full),inconclusive: 50 µM,
CC[C@H](NC(=O)c1cc(F)ccc1NS(=O)(=O)c1cccc2cccnc12)c1ccccc1,,inactive
CC1(C)C(C=C(Cl)Cl)C1C(=O)OCc1cccc(Oc2ccccc2)c1 (stereo not given),inconclusive: 17.8 µM,
CCN=c1cc2oc3cc(NCC)c(C)cc3c(-c3ccccc3C(=O)OCC)c-2cc1C,active: 5.61 µM,
CCCCC(CC)C(=O)OCCOCCOCCOC(=O)C(CC)CCCC (stereo not given),inconclusive: 50 µM,
CC(C)CCCCCCc1ccc(OCCOCCO)cc1,,inactive
OC[C@H]1O[C@@H](O[C@H]2[C@H](O)[C@@H](O)[C@H](O)O[C@@H]2CO)[C@H](O)[C@@H](O)[C@H]1O,inconclusive: 2.73 µM,
Cc1ccc(C)c(C)c1,inconclusive: 89.4 µM,
CCCCCCCCCc1ccc(OCCO)cc1,active: 35.2 µM,
NCCCN1CCOCC1,,inactive
CN(C[C@@H](CC[N+]12CCC(C3CCCCC3)(CC1)CC2)c1ccc(Cl)c(Cl)c1)C(=O)c1cc(C(F)(F)F)cc(C(F)(F)F)c1,active: 10.6 µM,
Cc1cc(C(=C2C=CC(=Nc3ccc(S(=O)(=O)O)cc3)C=C2)c2ccc(Nc3ccc(S(=O)(=O)O)cc3)cc2)cc(S(=O)(=O)O)c1N,,inactive

# Laid out differently: 2 of the compounds above
SMILES	AC50	outcome
COCCOC[C@H](CC1(C(=O)NC2CCC(C(=O)O)CC2)CCCC1)C(=O)Oc1ccc2c(c1)CCC2 (stereo not given in full)	inconclusive: 50 µM	
CC[C@H](NC(=O)c1cc(F)ccc1NS(=O)(=O)c1cccc2cccnc12)c1ccccc1		inactive
